{"sequences": {"note": "Sequences of proteins named here, by UniProt entry; tags and fusion partners are left off. A change or cut given only in a name is not applied to a line headed by its entry.", "UniProt P03372": "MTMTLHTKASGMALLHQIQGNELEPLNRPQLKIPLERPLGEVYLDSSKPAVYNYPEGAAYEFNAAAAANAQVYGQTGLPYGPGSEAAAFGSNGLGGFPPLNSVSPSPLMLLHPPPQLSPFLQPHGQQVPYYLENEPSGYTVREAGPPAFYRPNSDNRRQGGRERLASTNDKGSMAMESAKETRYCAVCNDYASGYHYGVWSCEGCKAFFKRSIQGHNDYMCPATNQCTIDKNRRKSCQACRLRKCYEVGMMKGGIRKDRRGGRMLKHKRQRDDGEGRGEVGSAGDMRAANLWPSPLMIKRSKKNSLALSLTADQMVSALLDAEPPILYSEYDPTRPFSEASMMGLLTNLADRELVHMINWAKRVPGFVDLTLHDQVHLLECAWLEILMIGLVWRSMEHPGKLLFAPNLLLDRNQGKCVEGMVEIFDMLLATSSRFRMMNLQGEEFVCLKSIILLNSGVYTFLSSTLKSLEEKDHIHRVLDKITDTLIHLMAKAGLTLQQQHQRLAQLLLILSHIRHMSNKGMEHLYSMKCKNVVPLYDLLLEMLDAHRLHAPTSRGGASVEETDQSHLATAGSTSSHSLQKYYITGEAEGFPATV", "UniProt O94992": "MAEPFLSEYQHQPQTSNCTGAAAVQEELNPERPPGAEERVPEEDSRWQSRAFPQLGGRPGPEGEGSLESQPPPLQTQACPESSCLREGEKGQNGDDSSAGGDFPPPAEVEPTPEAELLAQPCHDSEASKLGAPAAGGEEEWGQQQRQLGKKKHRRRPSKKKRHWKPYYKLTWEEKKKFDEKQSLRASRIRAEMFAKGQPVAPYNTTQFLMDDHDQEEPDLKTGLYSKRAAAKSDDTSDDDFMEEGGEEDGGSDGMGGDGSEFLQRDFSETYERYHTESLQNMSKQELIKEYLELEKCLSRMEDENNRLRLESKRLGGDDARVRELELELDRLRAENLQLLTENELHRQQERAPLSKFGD"}, "source": "patent US6753418", "key": {"[1]": {"target": "Estrogen Receptor α (ERα), in vitro translated and [35S]methionine-labeled (UniProt P03372)", "assay": "yeast two-hybrid screening"}, "[2]": {"target": "Estrogen Receptor α (ERα), in vitro translated and [35S]methionine-labeled (UniProt P03372)", "assay": "GST pull-down: GST-EDG1 on Sepharose with in vitro translated [35S]-labeled ERα in the presence of E2"}}, "note": "These are yes or no findings as the source states them, for the method shown. For some assays here: In cells and extracts the contact can be indirect. Some entries that bind do so weakly or less than the wild type."}
{"substance": "EDG1 protein (Estrogen Down-Regulated Gene 1 protein) (from UniProt O94992 1-359)", "values": [{"measurement": "binding", "setting": "[1]", "value": "binds"}]}
{"substance": "GST-EDG1 (full-length EDG1 in frame with glutathione-S-transferase, from pGEX2T-EDG1), bound to Sepharose (from UniProt O94992 1-359)", "values": [{"measurement": "binding", "setting": "[2]", "value": "binds"}]}
